B1: Q496J9 (protein, UniProt Q496J9 1-727, looked up)
chain: MEDSYKDRTSLMKGAKDIAREVKKQTVKKVNQAVDRAQDEYTQRSYSRFQDEEDDDDYYPAGETYNGEANDDEGSSEATEGHDEDDEIYEGEYQGIPSMNQAKDSIVSVGQPKGDEYKDRRELESERRADEEELAQQYELIIQECGHGRFQWALFFVLGMALMADGVEVFVVGFVLPSAETDLCIPNSGSGWLGSIVYLGMMVGAFFWGGLADKVGRKQSLLICMSVNGFFAFLSSFVQGYGFFLFCRLLSGFGIGGAIPTVFSYFAEVLAREKRGEHLSWLCMFWMIGGIYASAMAWAIIPHYGWSFSMGSAYQFHSWRVFVIVCALPCVSSVVALTFMPESPRFLLEVGKHDEAWMILKLIHDTNMRARGQPEKVFTVNKIKTPKQIDELIEIESDTGTWYRRCFVRIRTELYGIWLTFMRCFNYPVRDNTIKLTIVWFTLSFGYYGLSVWFPDVIKPLQSDEYALLTRNVERDKYANFTINFTMENQIHTGMEYDNGRFIGVKFKSVTFKDSVFKSCTFEDVTSVNTYFKNCTFIDTVFDNTDFEPYKFIDSEFKNCSFFHNKTGCQITFDDDYSAYWIYFVNFLGTLAVLPGNIVSALLMDRIGRLTMLGGSMVLSGISCFFLWFGTSESMMIGMLCLYNGLTISAWNSLDVVTVELYPTDRRATGFGFLNALCKAAAVLGNLIFGSLVSITKSIPILLASTVLVCGGLVGLCLPDTRTQVLM
modifications: full-length
B2: Q08629 (protein, UniProt Q08629 1-439, looked up)
chain: MPAIAVLAAAAAAWCFLQVESRHLDALAGGAGPNHGNFLDNDQWLSTVSQYDRDKYWNRFRDDDYFRNWNPNKPFDQALDPSKDPCLKVKCSPHKVCVTQDYQTALCVSRKHLLPRQKKGNVAQKHWVGPSNLVKCKPCPVAQSAMVCGSDGHSYTSKCKLEFHACSTGKSLATLCDGPCPCLPEPEPPKHKAERSACTDKELRNLASRLKDWFGALHEDANRVIKPTSSNTAQGRFDTSILPICKDSLGWMFNKLDMNYDLLLDPSEINAIYLDKYEPCIKPLFNSCDSFKDGKLSNNEWCYCFQKPGGLPCQNEMNRIQKLSKGKSLLGAFIPRCNEEGYYKATQCHGSTGQCWCVDKYGNELAGSRKQGAVSCEEEQETSGDFGSGGSVVLLDDLEYERELGPKDKEGKLRVHTRAVTEDDEDEDDDKEDEVGYIW
modifications: full-length
B3: Q9BQ16 (protein, UniProt Q9BQ16 1-436, looked up)
chain: MLKVSAVLCVCAAAWCSQSLAAAAAVAAAGGRSDGGNFLDDKQWLTTISQYDKEVGQWNKFRDEVEDDYFRTWSPGKPFDQALDPAKDPCLKMKCSRHKVCIAQDSQTAVCISHRRLTHRMKEAGVDHRQWRGPILSTCKQCPVVYPSPVCGSDGHTYSFQCKLEYQACVLGKQISVKCEGHCPCPSDKPTSTSRNVKRACSDLEFREVANRLRDWFKALHESGSQNKKTKTLLRPERSRFDTSILPICKDSLGWMFNRLDTNYDLLLDQSELRSIYLDKNEQCTKAFFNSCDTYKDSLISNNEWCYCFQRQQDPPCQTELSNIQKRQGVKKLLGQYIPLCDEDGYYKPTQCHGSVGQCWCVDRYGNEVMGSRINGVADCAIDFEISGDFASGDFHEWTDDEDDEDDIMNDEDEIEDDDEDEGDDDDGGDDHDVYI
modifications: full-length
B4: Q86TV6 (protein, UniProt Q86TV6 1-843, looked up)
chain: MATKKAGSRLETEIERCRSECQWERIPELVKQLSAKLIANDDMAELLLGESKLEQYLKEHPLRQGASPRGPKPQLTEVRKHLTAALDRGNLKSEFLQESNLIMAKLNYVEGDYKEALNIYARVGLDDLPLTAVPPYRLRVIAEAYATKGLCLEKLPISSSTSNLHVDREQDVITCYEKAGDIALLYLQEIERVILSNIQNRSPKPGPAPHDQELGFFLETGLQRAHVLYFKNGNLTRGVGRFRELLRAVETRTTQNLRMTIARQLAEILLRGMCEQSYWNPLEDPPCQSPLDDPLRKGANTKTYTLTRRARVYSGENIFCPQENTEEALLLLLISESMANRDAVLSRIPEHKSDRLISLQSASVVYDLLTIALGRRGQYEMLSECLERAMKFAFEEFHLWYQFALSLMAAGKSARAVKVLKECIRLKPDDATIPLLAAKLCMGSLHWLEEAEKFAKTVVDVGEKTSEFKAKGYLALGLTYSLQATDASLRGMQEVLQRKALLAFQRAHSLSPTDHQAAFYLALQLAISRQIPEALGYVRQALQLQGDDANSLHLLALLLSAQKHYHDALNIIDMALSEYPENFILLFSKVKLQSLCRGPDEALLTCKHMLQIWKSCYNLTNPSDSGRGSSLLDRTIADRRQLNTITLPDFSDPETGSVHATSVAASRVEQALSEVASSLQSSAPKQGPLHPWMTLAQIWLHAAEVYIGIGKPAEATACTQEAANLFPMSHNVLYMRGQIAELRGSMDEARRWYEEALAISPTHVKSMQRLALILHQLGRYSLAEKILRDAVQVNSTAHEVWNGLGEVLQAQGNDAAATECFLTALELEASSPAVPFTIIPRVL
modifications: full-length
B5: P10599 (protein, UniProt P10599 1-105, looked up)
chain: MVKQIESKTAFQEALDAAGDKLVVVDFSATWCGPCKMIKPFFHSLSEKYSNVIFLEVDVDDCQDVASECEVKCMPTFQFFKKGQKVGEFSGANKEKLEATINELV
modifications: full-length
B6: Q9Y2W1 (protein, UniProt Q9Y2W1 1-955, looked up)
chain: MSKTNKSKSGSRSSRSRSASRSRSRSFSKSRSRSRSLSRSRKRRLSSRSRSRSYSPAHNRERNHPRVYQNRDFRGHNRGYRRPYYFRGRNRGFYPWGQYNRGGYGNYRSNWQNYRQAYSPRRGRSRSRSPKRRSPSPRSRSHSRNSDKSSSDRSRRSSSSRSSSNHSRVESSKRKSAKEKKSSSKDSRPSQAAGDNQGDEAKEQTFSGGTSQDTKASESSKPWPDATYGTGSASRASAVSELSPRERSPALKSPLQSVVVRRRSPRPSPVPKPSPPLSSTSQMGSTLPSGAGYQSGTHQGQFDHGSGSLSPSKKSPVGKSPPSTGSTYGSSQKEESAASGGAAYTKRYLEEQKTENGKDKEQKQTNTDKEKIKEKGSFSDTGLGDGKMKSDSFAPKTDSEKPFRGSQSPKRYKLRDDFEKKMADFHKEEMDDQDKDKAKGRKESEFDDEPKFMSKVIGANKNQEEEKSGKWEGLVYAPPGKEKQRKTEELEEESFPERSKKEDRGKRSEGGHRGFVPEKNFRVTAYKAVQEKSSSPPPRKTSESRDKLGAKGDFPTGKSSFSITREAQVNVRMDSFDEDLARPSGLLAQERKLCRDLVHSNKKEQEFRSIFQHIQSAQSQRSPSELFAQHIVTIVHHVKEHHFGSSGMTLHERFTKYLKRGTEQEAAKNKKSPEIHRRIDISPSTFRKHGLAHDEMKSPREPGYKAEGKYKDDPVDLRLDIERRKKHKERDLKRGKSRESVDSRDSSHSRERSAEKTEKTHKGSKKQKKHRRARDRSRSSSSSSQSSHSYKAEEYTEETEEREESTTGFDKSRLGTKDFVGPSERGGGRARGTFQFRARGRGWGRGNYSGNNNNNSNNDFQKRNREEEWDPEYTPKSKKYYLHDDREGEGSDKWVSRGRGRGAFPRGRGRFMFRKSSTSPKWAHDKFSGEEGEIEDDESGTENREEKDNIQPTTE
modifications: full-length
B7: P13726 (protein, UniProt P13726 1-295, looked up)
chain: METPAWPRVPRPETAVARTLLLGWVFAQVAGASGTTNTVAAYNLTWKSTNFKTILEWEPKPVNQVYTVQISTKSGDWKSKCFYTTDTECDLTDEIVKDVKQTYLARVFSYPAGNVESTGSAGEPLYENSPEFTPYLETNLGQPTIQSFEQVGTKVNVTVEDERTLVRRNNTFLSLRDVFGKDLIYTLYYWKSSSSGKKTAKTNTNEFLIDVDKGENYCFSVQAVIPSRTVNRKSTDSPVECMGQEKGEFREIFYIIGAVVFVVIILVIILAISLHKCRKAGVGQSWKENSPLNVS
modifications: full-length
B8: Q5H9L2 (protein, UniProt Q5H9L2 1-206, looked up)
chain: MEKLYKENEGKPENERNLESEGKPEDEGSTEDEGKSDEEEKPDMEGKTECEGKREDEGEPGDEGQLEDEGNQEKQGKSEGEDKPQSEGKPASQAKPESQPRAAEKRPAEDYVPRKAKRKTDRGTDDSPKDSQEDLQERHLSSEEMMRECGDVSRAQEELRKKQKMGGFHWMQRDVQDPFAPRGQRGVRGVRGGGRGQKDLEDVPYV
modifications: full-length
B9: Q00577 (protein, UniProt Q00577 1-322, looked up)
chain: MADRDSGSEQGGAALGSGGSLGHPGSGSGSGGGGGGGGGGGGSGGGGGGAPGGLQHETQELASKRVDIQNKRFYLDVKQNAKGRFLKIAEVGAGGNKSRLTLSMSVAVEFRDYLGDFIEHYAQLGPSQPPDLAQAQDEPRRALKSEFLVRENRKYYMDLKENQRGRFLRIRQTVNRGPGLGSTQGQTIALPAQGLIEFRDALAKLIDDYGVEEEPAELPEGTSLTVDNKRFFFDVGSNKYGVFMRVSEVKPTYRNSITVPYKVWAKFGHTFCKYSEEMKKIQEKQREKRAACEQLHQQQQQQQEETAAATLLLQGEEEGEED
modifications: full-length
B10: Q9BTV4 (protein, UniProt Q9BTV4 1-400, looked up)
chain: MAANYSSTSTRREHVKVKTSSQPGFLERLSETSGGMFVGLMAFLLSFYLIFTNEGRALKTATSLAEGLSLVVSPDSIHSVAPENEGRLVHIIGALRTSKLLSDPNYGVHLPAVKLRRHVEMYQWVETEESREYTEDGQVKKETRYSYNTEWRSEIINSKNFDREIGHKNPSAMAVESFMATAPFVQIGRFFLSSGLIDKVDNFKSLSLSKLEDPHVDIIRRGDFFYHSENPKYPEVGDLRVSFSYAGLSGDDPDLGPAHVVTVIARQRGDQLVPFSTKSGDTLLLLHHGDFSAEEVFHRELRSNSMKTWGLRAAGWMAMFMGLNLMTRILYTLVDWFPVFRDLVNIGLKAFAFCVATSLTLLTVAAGWLFYRPLWALLIAGLALVPILVARTRVPAKKLE
modifications: full-length
B11: Q9Y3I0 (protein, UniProt Q9Y3I0 1-505, looked up)
chain: MSRSYNDELQFLEKINKNCWRIKKGFVPNMQVEGVFYVNDALEKLMFEELRNACRGGGVGGFLPAMKQIGNVAALPGIVHRSIGLPDVHSGYGFAIGNMAAFDMNDPEAVVSPGGVGFDINCGVRLLRTNLDESDVQPVKEQLAQAMFDHIPVGVGSKGVIPMNAKDLEEALEMGVDWSLREGYAWAEDKEHCEEYGRMLQADPNKVSARAKKRGLPQLGTLGAGNHYAEIQVVDEIFNEYAAKKMGIDHKGQVCVMIHSGSRGLGHQVATDALVAMEKAMKRDKIIVNDRQLACARIASPEGQDYLKGMAAAGNYAWVNRSSMTFLTRQAFAKVFNTTPDDLDLHVIYDVSHNIAKVEQHVVDGKERTLLVHRKGSTRAFPPHHPLIAVDYQLTGQPVLIGGTMGTCSYVLTGTEQGMTETFGTTCHGAGRALSRAKSRRNLDFQDVLDKLADMGIAIRVASPKLVMEEAPESYKNVTDVVNTCHDAGISKKAIKLRPIAVIKG
modifications: full-length
B12: P28289 (protein, UniProt P28289 1-359, looked up)
chain: MSYRRELEKYRDLDEDEILGALTEEELRTLENELDELDPDNALLPAGLRQKDQTTKAPTGPFKREELLDHLEKQAKEFKDREDLVPYTGEKRGKVWVPKQKPLDPVLESVTLEPELEEALANASDAELCDIAAILGMHTLMSNQQYYQALSSSSIMNKEGLNSVIKPTQYKPVPDEEPNSTDVEETLERIKNNDPKLEEVNLNNIRNIPIPTLKAYAEALKENSYVKKFSIVGTRSNDPVAYALAEMLKENKVLKTLNVESNFISGAGILRLVEALPYNTSLVEMKIDNQSQPLGNKVEMEIVSMLEKNATLLKFGYHFTQQGPRLRASNAMMNNNDLVRKRRLADLTGPIIPKCRSGV
modifications: full-length

Test: TMTcalibrator quantification of regulated proteins in AD CSF versus control
Parameters: species or system human
Conditions: CSF of AD patient versus control; non-modified peptides of each protein summed for three control and three AD cases

Row | Molecule | Log2 AD/Control
1 | B1 | 1.15
2 | B2 | 1.73
3 | B3 | 0.84
4 | B4 | 0.95
5 | B5 | 0.93
6 | B6 | 1.19
7 | B7 | 0.68
8 | B8 | 1.76
9 | B9 | 1.06
10 | B10 | −0.80
11 | B11 | 1.15
12 | B12 | 1.00

Reference: patent publication US12419871B2, “Biomolecules involved in Alzheimer's disease” (ELECTROPHORETICS LIMITED, priority 2015, dated 2025)
